These are yes or no findings as the source states them, for the method shown.
Biological target: full-length DE-cadherin (DEfull) (Drosophila) (UniProt Q24298)
Test: mixed cell aggregation assay; two populations of transfected S2 cells, marked with TagBFP or mKate2, mixed and rotated

Sequences of proteins named here, by UniProt entry; tags and fusion partners are left off. A change or cut given only in a name is not applied to a line headed by its entry.
UniProt Q24298: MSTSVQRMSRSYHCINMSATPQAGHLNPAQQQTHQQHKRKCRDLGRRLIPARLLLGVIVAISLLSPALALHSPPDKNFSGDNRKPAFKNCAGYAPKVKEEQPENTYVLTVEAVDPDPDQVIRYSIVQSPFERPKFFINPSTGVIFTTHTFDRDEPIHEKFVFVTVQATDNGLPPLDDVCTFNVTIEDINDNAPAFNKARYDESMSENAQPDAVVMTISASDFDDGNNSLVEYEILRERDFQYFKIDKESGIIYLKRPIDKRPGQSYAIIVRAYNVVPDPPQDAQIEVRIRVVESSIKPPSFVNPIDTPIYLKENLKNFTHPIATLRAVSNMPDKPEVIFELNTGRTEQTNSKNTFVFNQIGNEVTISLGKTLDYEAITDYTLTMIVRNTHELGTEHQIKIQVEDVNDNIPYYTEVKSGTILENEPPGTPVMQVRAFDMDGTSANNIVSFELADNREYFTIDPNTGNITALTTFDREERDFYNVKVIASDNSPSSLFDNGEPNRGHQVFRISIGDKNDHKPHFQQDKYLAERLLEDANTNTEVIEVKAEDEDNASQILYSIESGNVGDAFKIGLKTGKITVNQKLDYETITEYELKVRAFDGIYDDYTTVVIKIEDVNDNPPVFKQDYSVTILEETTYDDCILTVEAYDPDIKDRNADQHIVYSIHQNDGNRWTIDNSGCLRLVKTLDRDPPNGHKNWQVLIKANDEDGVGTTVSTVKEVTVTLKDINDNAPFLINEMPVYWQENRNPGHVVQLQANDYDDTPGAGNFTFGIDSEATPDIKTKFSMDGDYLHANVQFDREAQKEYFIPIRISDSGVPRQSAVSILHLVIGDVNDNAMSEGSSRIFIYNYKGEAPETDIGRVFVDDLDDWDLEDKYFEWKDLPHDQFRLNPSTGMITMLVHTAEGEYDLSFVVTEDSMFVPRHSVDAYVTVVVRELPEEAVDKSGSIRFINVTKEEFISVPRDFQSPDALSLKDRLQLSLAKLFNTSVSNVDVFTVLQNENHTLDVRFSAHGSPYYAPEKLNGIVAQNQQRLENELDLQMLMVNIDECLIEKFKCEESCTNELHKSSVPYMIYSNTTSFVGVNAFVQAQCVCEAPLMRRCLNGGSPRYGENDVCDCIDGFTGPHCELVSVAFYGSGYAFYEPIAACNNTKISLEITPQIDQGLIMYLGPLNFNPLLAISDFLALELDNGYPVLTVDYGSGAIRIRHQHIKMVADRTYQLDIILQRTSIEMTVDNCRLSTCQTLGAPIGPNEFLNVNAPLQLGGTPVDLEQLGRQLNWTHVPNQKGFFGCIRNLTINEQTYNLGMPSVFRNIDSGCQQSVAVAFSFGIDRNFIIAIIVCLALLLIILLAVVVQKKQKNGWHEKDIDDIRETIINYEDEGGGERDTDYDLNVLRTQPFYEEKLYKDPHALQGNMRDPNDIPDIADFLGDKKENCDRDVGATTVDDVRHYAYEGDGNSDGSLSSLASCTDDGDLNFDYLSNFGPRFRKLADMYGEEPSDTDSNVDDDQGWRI
UniProt O15943: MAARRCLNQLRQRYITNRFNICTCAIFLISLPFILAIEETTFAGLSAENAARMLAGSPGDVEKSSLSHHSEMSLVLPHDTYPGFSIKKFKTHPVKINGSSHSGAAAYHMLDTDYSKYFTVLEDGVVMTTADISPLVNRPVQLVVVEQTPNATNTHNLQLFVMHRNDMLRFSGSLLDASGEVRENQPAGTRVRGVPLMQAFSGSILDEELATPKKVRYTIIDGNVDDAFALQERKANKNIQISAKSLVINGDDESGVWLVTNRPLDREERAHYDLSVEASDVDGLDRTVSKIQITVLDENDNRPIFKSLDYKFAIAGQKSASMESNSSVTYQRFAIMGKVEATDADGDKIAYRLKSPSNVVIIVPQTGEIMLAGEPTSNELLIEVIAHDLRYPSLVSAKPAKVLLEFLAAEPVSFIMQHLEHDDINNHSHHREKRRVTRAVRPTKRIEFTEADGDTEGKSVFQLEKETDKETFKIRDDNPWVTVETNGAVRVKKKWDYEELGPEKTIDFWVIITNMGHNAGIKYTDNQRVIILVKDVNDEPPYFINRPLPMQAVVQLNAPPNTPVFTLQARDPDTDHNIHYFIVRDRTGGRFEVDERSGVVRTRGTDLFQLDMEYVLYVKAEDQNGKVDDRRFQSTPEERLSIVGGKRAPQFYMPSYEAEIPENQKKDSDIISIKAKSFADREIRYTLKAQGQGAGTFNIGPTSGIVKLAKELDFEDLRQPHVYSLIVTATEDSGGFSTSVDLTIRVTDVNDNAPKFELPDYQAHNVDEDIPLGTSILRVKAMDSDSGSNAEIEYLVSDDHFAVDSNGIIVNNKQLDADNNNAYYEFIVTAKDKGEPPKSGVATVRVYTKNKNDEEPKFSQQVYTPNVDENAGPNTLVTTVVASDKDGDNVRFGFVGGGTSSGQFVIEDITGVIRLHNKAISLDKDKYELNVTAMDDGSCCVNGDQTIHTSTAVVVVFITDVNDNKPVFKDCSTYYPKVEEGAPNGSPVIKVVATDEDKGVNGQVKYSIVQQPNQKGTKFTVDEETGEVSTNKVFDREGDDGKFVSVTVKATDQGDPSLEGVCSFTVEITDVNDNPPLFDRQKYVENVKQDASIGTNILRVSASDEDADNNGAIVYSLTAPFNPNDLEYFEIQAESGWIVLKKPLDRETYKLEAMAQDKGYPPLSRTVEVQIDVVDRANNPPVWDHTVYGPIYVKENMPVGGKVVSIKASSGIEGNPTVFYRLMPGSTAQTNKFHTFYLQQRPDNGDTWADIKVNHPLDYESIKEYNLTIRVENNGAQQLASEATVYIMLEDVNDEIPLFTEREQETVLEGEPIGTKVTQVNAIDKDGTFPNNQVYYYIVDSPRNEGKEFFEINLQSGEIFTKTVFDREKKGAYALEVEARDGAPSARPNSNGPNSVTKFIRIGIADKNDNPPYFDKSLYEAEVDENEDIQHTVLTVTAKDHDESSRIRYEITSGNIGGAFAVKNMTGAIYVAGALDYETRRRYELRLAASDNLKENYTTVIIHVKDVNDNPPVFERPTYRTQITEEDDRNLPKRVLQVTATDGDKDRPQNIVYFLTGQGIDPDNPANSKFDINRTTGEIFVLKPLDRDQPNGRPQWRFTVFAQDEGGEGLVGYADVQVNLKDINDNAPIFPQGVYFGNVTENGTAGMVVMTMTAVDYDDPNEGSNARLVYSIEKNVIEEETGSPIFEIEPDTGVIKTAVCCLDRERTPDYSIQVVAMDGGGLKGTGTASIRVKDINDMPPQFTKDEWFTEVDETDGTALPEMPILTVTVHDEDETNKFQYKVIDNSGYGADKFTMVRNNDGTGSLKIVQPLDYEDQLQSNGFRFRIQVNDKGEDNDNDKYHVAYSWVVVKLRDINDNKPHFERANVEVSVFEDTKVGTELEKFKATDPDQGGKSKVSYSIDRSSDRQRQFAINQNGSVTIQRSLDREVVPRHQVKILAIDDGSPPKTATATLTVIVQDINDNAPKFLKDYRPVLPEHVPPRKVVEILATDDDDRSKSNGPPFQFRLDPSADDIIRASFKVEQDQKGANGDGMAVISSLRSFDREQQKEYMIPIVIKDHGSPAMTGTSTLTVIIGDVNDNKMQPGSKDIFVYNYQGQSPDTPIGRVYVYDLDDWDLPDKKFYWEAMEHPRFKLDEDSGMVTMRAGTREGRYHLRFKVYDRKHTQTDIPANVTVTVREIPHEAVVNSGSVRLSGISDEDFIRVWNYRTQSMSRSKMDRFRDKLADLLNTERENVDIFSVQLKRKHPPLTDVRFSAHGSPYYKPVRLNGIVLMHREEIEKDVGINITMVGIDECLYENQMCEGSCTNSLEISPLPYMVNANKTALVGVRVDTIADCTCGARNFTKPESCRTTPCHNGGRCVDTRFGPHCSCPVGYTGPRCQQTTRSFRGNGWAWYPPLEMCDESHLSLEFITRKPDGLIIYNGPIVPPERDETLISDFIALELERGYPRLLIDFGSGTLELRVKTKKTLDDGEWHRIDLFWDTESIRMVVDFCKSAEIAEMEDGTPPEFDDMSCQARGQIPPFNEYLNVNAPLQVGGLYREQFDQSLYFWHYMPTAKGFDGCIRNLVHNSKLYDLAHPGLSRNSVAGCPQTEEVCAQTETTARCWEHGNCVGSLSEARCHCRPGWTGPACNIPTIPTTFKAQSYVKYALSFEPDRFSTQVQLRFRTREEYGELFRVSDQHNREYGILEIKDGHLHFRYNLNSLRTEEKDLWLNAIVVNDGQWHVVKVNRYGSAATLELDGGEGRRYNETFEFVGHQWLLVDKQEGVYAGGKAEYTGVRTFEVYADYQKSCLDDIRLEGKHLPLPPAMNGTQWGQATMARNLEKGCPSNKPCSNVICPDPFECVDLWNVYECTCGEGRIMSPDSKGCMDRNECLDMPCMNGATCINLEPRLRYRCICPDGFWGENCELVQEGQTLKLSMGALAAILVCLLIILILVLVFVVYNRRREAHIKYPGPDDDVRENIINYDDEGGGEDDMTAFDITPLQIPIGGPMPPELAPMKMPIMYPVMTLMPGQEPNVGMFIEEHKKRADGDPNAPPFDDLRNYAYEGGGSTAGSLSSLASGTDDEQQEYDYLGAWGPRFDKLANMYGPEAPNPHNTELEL

- binding: no binding
Substance: full-length DN-cadherin (DNfull) (from UniProt O15943)

— PMC8325961
